Structures were worked out from names or drawings and are uncertain.
Tests used:
P2X7 receptor = P2X7 receptor (Homo sapiens (Human), UniProt Q99572); test: Human P2X7 channel calcium-influx assay (Fluo-8 NW, FLIPR TETRA, Bz-ATP stimulation); settings: read-out: hP2X7 IC50, HEK-293 cells stably transfected with P2X7 receptor, Low Divalent Cation Assay Buffer
Procedure: (§1) Extracellular binding of Bz-ATP to P2X7 receptor opens the channel and allows Ca^2+ influx into the cells. This Ca^2+ entry was measured in HEK-293 cells stably transfected with P2X7 receptor using Screen Quest™ Fluo-8 No Wash Calcium Assay Kit (AAt Bioquest®, cat. 36316). Once inside the cell, the lipophilic blocking groups of Fluo-8 are cleaved by non-specific cell esterases, resulting in a negatively-charged fluorescent dye that stays inside cells. Its fluorescence increases upon binding to calcium. When HEK-293/P2X7 cells are stimulated with Bz-ATP, Ca^2+ enters the cells and the fluorescence of Fluo-8 NW increases. The dye has an absorption spectrum compatible with excitation at 488 nm by argon laser sources and its emission wavelength is in the range of 515-575 nm.
(§2) HEK-293 cells stably transfected with P2X7 receptor were seeded overnight in growth medium at 10,000 to 20,000 cells/well in 384-well plate. 24 hours later, the medium was removed, and the cells were pre-loaded at RT for 1 hour with 20 μL/w of Fluo-8 NW. Then 10 μL/w of test compounds and reference antagonist A438079 at 3X-concentration were injected with the FLIPRTETRA and the kinetic response over a period of five minutes was monitored. […]

Chains of the proteins cited; added tags and fusions are not shown.
UniProt Q99572, whole entry: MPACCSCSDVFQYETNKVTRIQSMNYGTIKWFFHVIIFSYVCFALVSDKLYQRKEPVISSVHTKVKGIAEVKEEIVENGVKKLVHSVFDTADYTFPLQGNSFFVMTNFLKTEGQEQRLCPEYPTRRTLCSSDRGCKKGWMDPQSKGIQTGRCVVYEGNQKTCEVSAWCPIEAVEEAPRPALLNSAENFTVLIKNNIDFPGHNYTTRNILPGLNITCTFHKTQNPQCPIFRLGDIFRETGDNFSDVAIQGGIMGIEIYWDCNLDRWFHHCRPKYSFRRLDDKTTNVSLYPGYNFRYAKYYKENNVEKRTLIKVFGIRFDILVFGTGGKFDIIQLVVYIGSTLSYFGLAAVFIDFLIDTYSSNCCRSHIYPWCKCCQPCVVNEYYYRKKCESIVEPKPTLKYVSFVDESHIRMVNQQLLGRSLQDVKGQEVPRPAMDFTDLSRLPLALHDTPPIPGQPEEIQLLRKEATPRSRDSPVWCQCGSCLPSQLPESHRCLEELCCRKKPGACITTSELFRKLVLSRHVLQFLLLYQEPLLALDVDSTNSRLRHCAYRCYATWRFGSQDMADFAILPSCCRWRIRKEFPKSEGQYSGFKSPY
UniProt Q9Z1M0, whole entry: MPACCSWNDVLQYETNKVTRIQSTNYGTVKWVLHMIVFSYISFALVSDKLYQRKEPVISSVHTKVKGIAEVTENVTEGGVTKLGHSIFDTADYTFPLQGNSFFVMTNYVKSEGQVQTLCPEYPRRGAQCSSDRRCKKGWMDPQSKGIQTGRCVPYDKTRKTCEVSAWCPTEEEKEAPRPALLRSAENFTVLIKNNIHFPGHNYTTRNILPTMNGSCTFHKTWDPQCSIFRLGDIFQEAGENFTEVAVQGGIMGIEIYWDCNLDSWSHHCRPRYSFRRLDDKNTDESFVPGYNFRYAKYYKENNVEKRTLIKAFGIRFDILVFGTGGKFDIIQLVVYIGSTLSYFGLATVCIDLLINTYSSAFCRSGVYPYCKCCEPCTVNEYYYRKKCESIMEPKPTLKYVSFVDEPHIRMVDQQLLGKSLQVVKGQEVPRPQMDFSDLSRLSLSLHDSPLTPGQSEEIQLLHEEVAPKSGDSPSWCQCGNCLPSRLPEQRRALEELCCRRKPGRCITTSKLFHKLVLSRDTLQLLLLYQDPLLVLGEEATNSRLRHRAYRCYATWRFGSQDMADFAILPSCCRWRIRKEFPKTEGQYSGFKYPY

mP2X7 = mP2X7 (Mus musculus (Mouse), UniProt Q9Z1M0); test: mP2X7 channel calcium-influx assay (Fluo-8 NW, FLIPR TETRA, Bz-ATP stimulation); settings: read-out: mP2X7 IC50
Procedure: as §1, §2

- IC50 (P2X7 receptor): 16.6 nM
- IC50 (mP2X7): 24.6 nM
Structure (SMILES): O=C(NCC(c1scnc1C(F)F)N1CCC(Oc2nncc3ccccc23)CC1)c1c(F)cccc1Cl (centres unmarked)
